These are yes or no findings as the source states them, for the method shown. In cells and extracts the contact can be indirect. These calls come from enrichment with a bait or labelling near it, and not all partners need be listed.
Key:
[1] = molecular target: Myc tag-NaVβ3 (voltage-gated Na+ channel β3 subunit, encoded by SCN3B), expressed in COS-7 (human) (UniProt Q9NY72); assay: affinity purification with mass spectrometry; Myc-NaVβ3 from transfected COS-7 immunocaptured on Myc-Trap magnetic beads and washed, then incubated with 1 mg HUVEC whole protein lysate for 1 h at 4°C; eluate analysed by LC-MS/MS (DDA); pCTL vector as negative control; only the target purified
[2] = molecular target: Myc tag-NaVβ3 (voltage-gated Na+ channel β3 subunit, encoded by SCN3B), expressed in TeloHAEC (human) (UniProt Q9NY72); assay: affinity purification with mass spectrometry; Myc-NaVβ3 captured from lysate of transfected TeloHAEC (20 mM Tris pH 7.4, 150 mM NaCl, 1% Triton) on Myc-Trap magnetic agarose beads overnight at 4°C after pre-clearing on control beads; eluate analysed by LC-MS/MS (DDA); pCTL vector as negative …

The chains behind the UniProt entries cited, without tags or fusion partners. Residues count along the entry.
UniProt Q9NY72, residues 23-215: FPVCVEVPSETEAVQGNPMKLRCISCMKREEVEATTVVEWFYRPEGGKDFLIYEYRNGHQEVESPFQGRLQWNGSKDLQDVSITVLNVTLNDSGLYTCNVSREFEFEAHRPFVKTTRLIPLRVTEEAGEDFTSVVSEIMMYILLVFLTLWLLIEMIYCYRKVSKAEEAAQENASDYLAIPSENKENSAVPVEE

B1: TMED9 (protein, UniProt Q9BVK6 38-235)
chain: LYFHIGETEKKCFIEEIPDETMVIGNYRTQLYDKQREEYQPATPGLGMFVEVKDPEDKVILARQYGSEGRFTFTSHTPGEHQICLHSNSTKFSLFAGGMLRVHLDIQVGEHANDYAEIAAKDKLSELQLRVRQLVEQVEQIQKEQNYQRWREERFRQTSESTNQRVLWWSILQTLILVAIGVWQMRHLKSFFEAKKLV
[1]
  binding: binds
[2]
  binding: binds

— paper PMC12124425
